This passage reports binding results from paper doi:10.1101/189621.

No constants are given. Whether binding was seen depends on the method and setting. Binding seen in cells or lysates may run through a third protein. Binding can be weak; no strength is given.

The assay has as its target protein binding domain (PBD) of the ARF6 effector protein GGA3 (UniProt Q9NZ52). Kind of assay: pull-down.

In the case of “ARF6, GTP-bound form (from UniProt P62331 1-175)”, the binding entry is recorded as “binds”.
